Measured values taken from PubChem BioAssay AID2417 (National Center for Advancing Translational Sciences (NCATS), 2010).
In all, about 140,000 compounds went through this assay and about 4,300 (3.1%) were called active. The inconclusive results got no clear call from the source; some entries with a clear call stand among them for comparison.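 Rule for the calls: active = readout at or below -70, meaning at least 70% loss of cells showing the perinucleolar compartment, a nuclear body marking cancer cells; inconclusive = readout between -30 and a set limit; inactive = the rest.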

Test: High Content Assay for Compounds that inhibit the Assembly of the Perinucleolar Compartment;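 note: plate controls were DMSO wells for no effect and camptothecin positive control wells for full effect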
Conditions: PC3M PTB-GFP, PNC prevalence imaging, 16 h; at 10 µM; hits give low values
Method in brief: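 Read-out is percentage of cells bearing a perinucleolar compartment, from automated 20x imaging of fixed, Hoechst-stained PC3M PTB-GFP cells. Cells were seeded 4 h, then exposed 16 h to compound (23 nl of library stock) in duplicate plates.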

Row | Structure (SMILES) | activity change (PNC), negative = inhibition
1 | Cc1cccc(N2C(=O)CN(Cc3sccc3C)C2=S)c1 | inactive: -16.4%
2 | Cc1ccc(NC(=O)CSc2nc(N)c3c4c(sc3n2)CSC(C)(C)C4)cc1 | active: -92.6%
3 | CC(C)(C)OC(=O)C1C(=O)CC(C)(O)C(C(=O)OC(C)(C)C)C1c1ccco1 (stereo not given) | inconclusive: -48.5%
4 | O=S1(=O)NC(=NCc2ccco2)c2ccccc21 | inconclusive: -43.2%
5 | Cc1nc2nc3c(c(=O)n2[nH]1)CCC3 | inconclusive: -36.4%
6 | N#Cc1c(NCc2ccccc2)ccnc1NCc1cccnc1 | active: -106%
7 | Cc1ccc(N(C(=O)C2CCCC2)C2C=CS(=O)(=O)C2)cc1 (stereo not given) | inconclusive: -58.5%
8 | COc1ccccc1CCNCc1ccc(OC)c(OCc2ccccc2)c1 | inconclusive: -33.1%
9 | COC(=O)c1ccc(C)c(NC(=O)Cc2coc3cc(OC)ccc23)c1 | inconclusive: -37%
10 | Cc1occc1-c1nnc(SCC(=O)NC2CCCC2)n1-c1ccccc1 | inconclusive: -59.5%
11 | Cc1cc(C)cc(NC(=O)CCc2nc3ccccc3[nH]2)c1 | inconclusive: -57.6%
12 | CC(=O)Nc1cccc(C(=O)OCc2ccccc2)c1 | inconclusive: -56.8%
13 | CCOC(=O)C1CCN(Cc2cnc(Oc3ccc(C(C)(C)C)cc3)s2)CC1 | inactive: 15.6%
14 | O=C(CN1CCN(Cc2ccc(F)cc2Cl)C1=O)NCCc1ccc(Cl)cc1 | inconclusive: -64.1%
15 | CC(=O)Cc1nsc(NC(=O)c2ccc(-c3cccc(C(F)(F)F)c3)o2)n1 | inconclusive: -31.2%
16 | Cc1ccc2cccc(O)c2[n+]1[O-] | inconclusive: -40.2%
17 | CCCCn1c(CNC(=O)C23CC4CC(CC(C4)C2)C3)nnc1SC(C)CC (stereo not given) | inconclusive: -45%
18 | COC(=O)c1sc(S(=O)(=O)NCc2cccs2)c(C(=O)OC)c1C | active: -111%
19 | CC(=O)ON1C(C)(C)CC(OC(=O)c2ccccc2)CC1(C)C | inconclusive: -31.1%
20 | Cc1nc(NCCN)c(C#N)c2c1COC(C)(C)C2 | inactive: 32.5%
21 | CCN(c1ccc(NC(=O)CN2C(=O)NC3(CCOc4ccccc43)C2=O)cc1)C(C)C (stereo not given) | inactive: -5%
22 | COc1cc(C(=O)Nc2ccc(Br)cc2C(=O)c2cc(OC)c(OC)c(OC)c2)cc(OC)c1OC | inactive: 18.9%
23 | COc1ccc(-c2nnc(CSc3nnc(-c4ccncc4)n3C3CCCCC3)o2)cc1OC | inconclusive: -35.1%

Row | Structure (SMILES) | activity change (PNC), negative = inhibition
24 | O=C1CC(Nc2ccccc2)C(=O)N1Cc1ccccc1 (stereo not given) | inconclusive: -35.3%
25 | CCN1CCN(CC(O)COc2cccc(OC)c2)CC1 (stereo not given) | inconclusive: -38.3%
26 | Cc1ccc(CN(CC(=O)NC2CCCC2)C(=O)CSc2nnc(COc3ccccc3)o2)cc1 | inactive: -25.8%
27 | Cc1cc(C)c2c(c1)cc(C)c1nnc(SCC(=O)Nc3ccccc3N3CCOCC3)n12 | inconclusive: -43.1%
28 | CCOc1ccc(-n2cnnn2)cc1S(=O)(=O)Nc1c(C)cccc1C | inconclusive: -54.5%
29 | Cc1ccc(C)c(N2CCN(c3nc4ccccc4c(=O)n3Cc3ccccc3)CC2)c1 | inconclusive: -38.1%
30 | O=C(N/N=C/c1ccccc1)c1c(O)c2ccccc2[nH]c1=O | inconclusive: -32.4%
31 | C/C(=N\Nc1cc(Cl)nc(C)n1)c1ccc(Cl)c(Cl)c1 | inconclusive: -59.4%
32 | CCn1c2ccccc2c2nnc(SCC(=O)Nc3cc(C)on3)nc21 | inconclusive: -33.8%
33 | Cc1ccc(-c2nnn(CC(=O)N(CC(=O)NCC3CCCO3)c3ccc(F)c(Cl)c3)n2)o1 (stereo not given) | inconclusive: -68.6%
34 | Cc1ccc(C(=O)N/C(=C\c2cccs2)C(=O)NCCc2c[nH]c3ccccc23)cc1 | inconclusive: -44.3%
35 | O=C(NC1CCCC1)C(c1cccs1)N(C(=O)c1ccco1)c1ccc2c(c1)OCO2 (stereo not given) | inconclusive: -32.3%
36 | COCCNC(=O)c1onc(CSc2ccc(F)c(F)c2)c1C(=O)O | inconclusive: -49.5%
37 | CC(C)c1ccc2c(c1)[C@H]1OCC[C@H]1[C@@H](c1cccs1)N2 | active: -109%
38 | O=C(NC1CCCCC1)C(c1cccnc1)N(C(=O)CCl)c1ccc(F)cc1 (stereo not given) | inactive: -20.7%
39 | CNC(=S)Nc1cc(C(F)(F)F)ccc1Cl | active: -86.3%
40 | Cc1nn(CC(=O)NCc2ccc(OC(C)C)cc2)c(=O)c2cc3occc3n12 | inconclusive: -67.8%
41 | Cn1cc(S(=O)(=O)N2CCc3ccccc3C2)c(=O)n(C)c1=O | inconclusive: -37%
42 | O=C(NCCCc1ccccc1)Nc1ccccc1 | inactive: 53.5%
43 | Cc1ccc(C(C)C)c(OCc2ccc(C(=O)N/N=C/c3ccc(O)c(O)c3)cc2)c1 | active: -124%
44 | Cc1cccc(N=C/C(C(=O)C(F)(F)F)=C(\O)c2ccco2)c1 | inconclusive: -60.6%
45 | O=S(=O)(c1ccc(Cl)s1)N1CCC(Cc2ccccc2)CC1 | inconclusive: -55.1%

Of the compounds above, these have a tert-butyl group.
Row | Structure (SMILES) | activity change (PNC), negative = inhibition
3 | CC(C)(C)OC(=O)C1C(=O)CC(C)(O)C(C(=O)OC(C)(C)C)C1c1ccco1 (stereo not given) | inconclusive: -48.5%
13 | CCOC(=O)C1CCN(Cc2cnc(Oc3ccc(C(C)(C)C)cc3)s2)CC1 | inactive: 15.6%
